Laboratory results: PubChem BioAssay AID652259 (Drosophila RNAi Screening Center, 2013)
The screen tested about 22,000 reagents; below is a random part of those that have a named target and a result. In the full data, 233 (1.1%) were called active. 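Light values are raw, unnormalised plate reads; the ratio scores behind the reporter calls were not deposited.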 Reagents against one gene are numbered here. Names joined by + are all predicted targets of the reagent. Not stated in the record: the amount of reagent, the time to read-out, the dose of the treatment.

- Assay: 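Identify new Wingless signalling regulators in fly cells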 (primary screen)
- Cells: Drosophila clone 8 imaginal disc epithelial cells
- Reagent: long dsRNA against Drosophila genes
- Conditions: pathway stimulated by co-transfected Wingless expression plasmid
- Read-out: 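Dual luciferase reads per well after Wingless plasmid stimulation: reporter firefly light and Renilla control light; activity is firefly divided by Renilla, a ratio not deposited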
- Direction: firefly reporter light: higher = more Wg reporter light, before normalisation; Renilla control light: higher = more transfected or surviving cells
- Hit rule: 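Strong candidates differ from their plate mean by at least two out of four per-plate statistical tests; weak candidates meet just one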
- Meaning of the calls: active = candidate regulator (raises or lowers reporter); inactive = not a candidate

| gene | dsRNA no. | reporter change call, replicate 1 | firefly reporter light, replicate 1 | firefly reporter light, replicate 2 | Renilla control light, replicate 1 | Renilla control light, replicate 2 | outcome |
| --- | --- | --- | --- | --- | --- | --- | --- |
| CG10417 | 1 | – | 15365 | – | 4347 | – | inactive |
| Obp19a (Odorant-binding protein 19a) | 1 | – | 22928 | – | 9971 | – | inactive |
| ms(3)76Cc (male sterile (3) 76Cc) | 1 | – | 21948 | – | 7249 | – | inactive |
| ms(3)76Cc (male sterile (3) 76Cc) | 2 | – | 3.92e5 | 4.45e5 | 1.62e5 | 1.61e5 | inactive |
| Obp18a (Odorant-binding protein 18a) | 1 | – | 19128 | – | 10938 | – | inactive |
| Cby (Chibby) | 1 | – | 37417 | – | 7093 | – | inactive |
| CG31710 | 1 | – | 23761 | – | 12714 | – | inactive |
| CG31710 | 2 | – | 6.12e5 | 6.37e5 | 3.20e5 | 3.96e5 | inactive |
| CG34288 | 1 | – | 4291 | – | 2181 | – | inactive |
| CG33476 | 1 | – | 6.15e5 | 5.88e5 | 2.31e5 | 1.74e5 | inactive |
| bs (blistered) | 1 | Wg reporter activity raised | 4347 | 11179 | 1312 | 3954 | active |
| dbf (doublefault) | 1 | – | 2730 | 6662 | 1156 | 2681 | inactive |
| Cpr72Ec (Cuticular protein 72Ec) | 1 | – | 5590 | – | 2172 | – | inactive |
| Syx16 (Syntaxin 16) | 1 | – | 1685 | 5427 | 1024 | 2032 | inactive |
| sala + CG43355 | 1 | – | 21904 | 7.09e5 | 14427 | 2.64e5 | inactive |
| sala + CG43355 | 2 | – | 2848 | 4550 | 935 | 3249 | inactive |
| mthl13 (methuselah-like 13) | 1 | – | 15779 | – | 13280 | – | inactive |
| CG33523 | 1 | – | 1591 | 6007 | 1671 | 3049 | inactive |
| CG33523 | 2 | – | 7.00e5 | 8.13e5 | 2.88e5 | 3.28e5 | inactive |

5 entries from above, sorted by “firefly reporter light, replicate 1”, low to high.
| gene | dsRNA no. | reporter change call, replicate 1 | firefly reporter light, replicate 1 | firefly reporter light, replicate 2 | Renilla control light, replicate 1 | Renilla control light, replicate 2 | outcome |
| --- | --- | --- | --- | --- | --- | --- | --- |
| Syx16 (Syntaxin 16) | 1 | – | 1685 | 5427 | 1024 | 2032 | inactive |
| dbf (doublefault) | 1 | – | 2730 | 6662 | 1156 | 2681 | inactive |
| bs (blistered) | 1 | Wg reporter activity raised | 4347 | 11179 | 1312 | 3954 | active |
| Cpr72Ec (Cuticular protein 72Ec) | 1 | – | 5590 | – | 2172 | – | inactive |
| CG33476 | 1 | – | 6.15e5 | 5.88e5 | 2.31e5 | 1.74e5 | inactive |

The results go on.
| gene | dsRNA no. | reporter change call, replicate 1 | firefly reporter light, replicate 1 | firefly reporter light, replicate 2 | Renilla control light, replicate 1 | Renilla control light, replicate 2 | outcome |
| --- | --- | --- | --- | --- | --- | --- | --- |
| Cyt-b5 (Cytochrome b5) | 1 | – | 14146 | – | 2646 | – | inactive |
| CG18294 | 1 | – | 16674 | – | 5180 | – | inactive |
| snk (snake) | 1 | – | 15076 | – | 3209 | – | inactive |
| Cyp313a1 (Cytochrome P450 313a1) | 1 | – | 14416 | – | 4184 | – | inactive |
| CG17378 | 1 | – | 2512 | 3696 | 1264 | 1845 | inactive |
| MetRS (Methionyl-tRNA synthetase) | 1 | – | 6.65e5 | 7.27e5 | 2.70e5 | 1.18e5 | inactive |
| Srp54 (Splicing regulatory protein 54) | 1 | – | 5667 | – | 2154 | – | inactive |
| Gmppb (GDP-mannose pyrophosphorylase B) | 1 | – | 4960 | – | 1176 | – | inactive |
| CG13252 | 1 | – | 14434 | – | 5604 | – | inactive |
| CG14628 | 1 | – | 23287 | – | 14170 | – | inactive |
